# This is one part of the list. Most values lie at the level of the controls, where differences are scatter.
# The chains behind the UniProt entries cited, without tags or fusion partners. Where a name states a change or a piece, a line headed by the entry shows the natural chain unless it says otherwise.
# UniProt Q3TB82: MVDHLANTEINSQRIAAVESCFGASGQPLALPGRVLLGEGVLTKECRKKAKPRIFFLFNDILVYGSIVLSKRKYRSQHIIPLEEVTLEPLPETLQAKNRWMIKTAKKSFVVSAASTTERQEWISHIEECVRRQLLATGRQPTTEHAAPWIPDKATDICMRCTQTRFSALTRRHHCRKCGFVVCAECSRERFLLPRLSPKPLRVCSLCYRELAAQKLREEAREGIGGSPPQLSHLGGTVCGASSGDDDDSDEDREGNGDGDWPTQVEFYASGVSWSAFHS
# UniProt Q3TVC7: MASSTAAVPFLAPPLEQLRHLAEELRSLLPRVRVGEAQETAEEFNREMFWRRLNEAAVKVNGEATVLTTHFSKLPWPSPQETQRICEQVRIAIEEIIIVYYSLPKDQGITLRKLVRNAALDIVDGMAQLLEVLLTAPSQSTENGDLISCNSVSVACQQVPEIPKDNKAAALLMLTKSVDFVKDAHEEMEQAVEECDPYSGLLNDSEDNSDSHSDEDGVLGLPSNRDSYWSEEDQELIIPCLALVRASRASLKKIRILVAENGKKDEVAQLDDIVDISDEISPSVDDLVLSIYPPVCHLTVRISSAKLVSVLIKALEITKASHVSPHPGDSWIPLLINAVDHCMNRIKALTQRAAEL
# UniProt Q3TZZ7: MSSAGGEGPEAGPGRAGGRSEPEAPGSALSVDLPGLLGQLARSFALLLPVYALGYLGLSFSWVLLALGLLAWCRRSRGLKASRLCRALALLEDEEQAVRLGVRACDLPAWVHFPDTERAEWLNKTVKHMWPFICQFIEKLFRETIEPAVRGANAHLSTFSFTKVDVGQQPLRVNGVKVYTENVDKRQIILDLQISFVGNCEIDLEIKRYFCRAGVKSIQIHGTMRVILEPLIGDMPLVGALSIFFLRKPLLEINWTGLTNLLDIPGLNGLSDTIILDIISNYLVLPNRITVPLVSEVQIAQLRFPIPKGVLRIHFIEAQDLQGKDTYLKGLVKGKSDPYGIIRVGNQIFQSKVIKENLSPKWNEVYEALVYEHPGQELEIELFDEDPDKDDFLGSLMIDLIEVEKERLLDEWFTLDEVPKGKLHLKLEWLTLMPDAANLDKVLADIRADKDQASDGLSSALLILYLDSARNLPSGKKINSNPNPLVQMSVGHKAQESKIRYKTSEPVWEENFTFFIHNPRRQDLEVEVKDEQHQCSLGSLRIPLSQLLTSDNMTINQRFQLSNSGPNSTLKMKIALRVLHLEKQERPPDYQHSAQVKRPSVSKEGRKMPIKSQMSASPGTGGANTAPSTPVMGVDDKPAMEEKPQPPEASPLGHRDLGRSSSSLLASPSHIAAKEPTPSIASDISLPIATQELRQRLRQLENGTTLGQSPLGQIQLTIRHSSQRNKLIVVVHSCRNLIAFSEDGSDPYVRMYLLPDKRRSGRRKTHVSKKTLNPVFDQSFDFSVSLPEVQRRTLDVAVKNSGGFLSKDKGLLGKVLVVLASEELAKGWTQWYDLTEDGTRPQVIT
# UniProt Q3TYX3: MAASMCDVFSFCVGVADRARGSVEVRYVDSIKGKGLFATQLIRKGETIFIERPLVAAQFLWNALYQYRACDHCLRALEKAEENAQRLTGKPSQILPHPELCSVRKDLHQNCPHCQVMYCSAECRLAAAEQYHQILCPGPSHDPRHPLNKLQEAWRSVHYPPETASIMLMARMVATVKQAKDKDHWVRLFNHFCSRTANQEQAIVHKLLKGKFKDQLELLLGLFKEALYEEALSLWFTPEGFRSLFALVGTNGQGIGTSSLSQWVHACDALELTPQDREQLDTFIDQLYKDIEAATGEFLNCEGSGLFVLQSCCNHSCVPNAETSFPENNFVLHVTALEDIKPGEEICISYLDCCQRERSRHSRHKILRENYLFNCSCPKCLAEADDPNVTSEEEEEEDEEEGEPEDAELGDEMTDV
# UniProt Q04742: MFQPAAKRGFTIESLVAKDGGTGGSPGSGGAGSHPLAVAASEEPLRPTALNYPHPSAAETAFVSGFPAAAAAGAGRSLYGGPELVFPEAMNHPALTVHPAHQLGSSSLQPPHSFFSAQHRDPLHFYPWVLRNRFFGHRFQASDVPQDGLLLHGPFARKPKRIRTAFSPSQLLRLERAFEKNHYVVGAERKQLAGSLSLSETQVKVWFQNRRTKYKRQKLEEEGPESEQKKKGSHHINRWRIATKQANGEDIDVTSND
# UniProt Q14BJ1: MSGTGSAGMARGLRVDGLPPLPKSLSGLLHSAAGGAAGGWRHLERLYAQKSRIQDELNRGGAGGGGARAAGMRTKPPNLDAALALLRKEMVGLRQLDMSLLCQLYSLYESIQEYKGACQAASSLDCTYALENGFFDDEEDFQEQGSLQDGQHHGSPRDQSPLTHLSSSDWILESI
# UniProt Q05920: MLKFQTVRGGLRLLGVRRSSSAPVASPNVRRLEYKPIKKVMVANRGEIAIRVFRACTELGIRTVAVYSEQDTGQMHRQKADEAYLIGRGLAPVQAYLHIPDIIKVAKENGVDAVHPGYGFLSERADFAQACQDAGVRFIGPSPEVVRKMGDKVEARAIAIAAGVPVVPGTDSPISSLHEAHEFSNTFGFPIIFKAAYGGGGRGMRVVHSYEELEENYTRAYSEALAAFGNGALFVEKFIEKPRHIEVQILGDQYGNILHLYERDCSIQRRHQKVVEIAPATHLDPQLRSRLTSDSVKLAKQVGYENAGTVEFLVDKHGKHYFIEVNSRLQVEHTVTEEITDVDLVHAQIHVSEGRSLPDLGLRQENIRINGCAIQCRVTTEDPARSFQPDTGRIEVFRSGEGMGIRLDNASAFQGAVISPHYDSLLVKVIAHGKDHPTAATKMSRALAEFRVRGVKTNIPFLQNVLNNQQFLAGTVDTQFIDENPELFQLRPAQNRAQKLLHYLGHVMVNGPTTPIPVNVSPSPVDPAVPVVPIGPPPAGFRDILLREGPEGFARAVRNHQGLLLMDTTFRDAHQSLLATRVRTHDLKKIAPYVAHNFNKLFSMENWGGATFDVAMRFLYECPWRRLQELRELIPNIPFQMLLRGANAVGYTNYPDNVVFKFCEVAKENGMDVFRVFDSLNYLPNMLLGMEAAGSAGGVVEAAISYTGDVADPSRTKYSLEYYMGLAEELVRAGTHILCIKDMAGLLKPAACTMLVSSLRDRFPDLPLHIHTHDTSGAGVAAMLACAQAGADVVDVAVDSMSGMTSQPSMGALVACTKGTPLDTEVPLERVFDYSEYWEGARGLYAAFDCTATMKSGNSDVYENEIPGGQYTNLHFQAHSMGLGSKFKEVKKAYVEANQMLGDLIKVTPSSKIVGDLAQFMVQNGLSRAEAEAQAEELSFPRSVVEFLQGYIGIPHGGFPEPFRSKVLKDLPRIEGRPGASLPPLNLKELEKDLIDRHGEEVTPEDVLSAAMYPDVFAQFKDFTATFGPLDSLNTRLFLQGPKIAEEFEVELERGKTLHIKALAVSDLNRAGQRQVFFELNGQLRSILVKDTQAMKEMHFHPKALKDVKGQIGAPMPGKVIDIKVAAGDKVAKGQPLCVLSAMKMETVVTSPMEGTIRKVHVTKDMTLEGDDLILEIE
# UniProt Q3TQF0: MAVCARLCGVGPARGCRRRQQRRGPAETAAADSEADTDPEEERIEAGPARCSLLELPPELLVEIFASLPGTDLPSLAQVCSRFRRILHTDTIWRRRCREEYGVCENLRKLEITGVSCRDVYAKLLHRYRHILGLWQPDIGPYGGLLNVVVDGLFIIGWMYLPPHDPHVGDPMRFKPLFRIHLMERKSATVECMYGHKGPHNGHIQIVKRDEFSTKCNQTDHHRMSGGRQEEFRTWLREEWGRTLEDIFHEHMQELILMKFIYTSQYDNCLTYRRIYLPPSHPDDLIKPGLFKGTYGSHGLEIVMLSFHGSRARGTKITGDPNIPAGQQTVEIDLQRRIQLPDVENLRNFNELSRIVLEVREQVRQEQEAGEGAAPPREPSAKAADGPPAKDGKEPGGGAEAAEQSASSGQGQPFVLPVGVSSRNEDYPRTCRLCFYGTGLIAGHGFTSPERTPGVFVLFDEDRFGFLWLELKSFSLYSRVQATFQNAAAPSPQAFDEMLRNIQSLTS
# UniProt Q2EMV9: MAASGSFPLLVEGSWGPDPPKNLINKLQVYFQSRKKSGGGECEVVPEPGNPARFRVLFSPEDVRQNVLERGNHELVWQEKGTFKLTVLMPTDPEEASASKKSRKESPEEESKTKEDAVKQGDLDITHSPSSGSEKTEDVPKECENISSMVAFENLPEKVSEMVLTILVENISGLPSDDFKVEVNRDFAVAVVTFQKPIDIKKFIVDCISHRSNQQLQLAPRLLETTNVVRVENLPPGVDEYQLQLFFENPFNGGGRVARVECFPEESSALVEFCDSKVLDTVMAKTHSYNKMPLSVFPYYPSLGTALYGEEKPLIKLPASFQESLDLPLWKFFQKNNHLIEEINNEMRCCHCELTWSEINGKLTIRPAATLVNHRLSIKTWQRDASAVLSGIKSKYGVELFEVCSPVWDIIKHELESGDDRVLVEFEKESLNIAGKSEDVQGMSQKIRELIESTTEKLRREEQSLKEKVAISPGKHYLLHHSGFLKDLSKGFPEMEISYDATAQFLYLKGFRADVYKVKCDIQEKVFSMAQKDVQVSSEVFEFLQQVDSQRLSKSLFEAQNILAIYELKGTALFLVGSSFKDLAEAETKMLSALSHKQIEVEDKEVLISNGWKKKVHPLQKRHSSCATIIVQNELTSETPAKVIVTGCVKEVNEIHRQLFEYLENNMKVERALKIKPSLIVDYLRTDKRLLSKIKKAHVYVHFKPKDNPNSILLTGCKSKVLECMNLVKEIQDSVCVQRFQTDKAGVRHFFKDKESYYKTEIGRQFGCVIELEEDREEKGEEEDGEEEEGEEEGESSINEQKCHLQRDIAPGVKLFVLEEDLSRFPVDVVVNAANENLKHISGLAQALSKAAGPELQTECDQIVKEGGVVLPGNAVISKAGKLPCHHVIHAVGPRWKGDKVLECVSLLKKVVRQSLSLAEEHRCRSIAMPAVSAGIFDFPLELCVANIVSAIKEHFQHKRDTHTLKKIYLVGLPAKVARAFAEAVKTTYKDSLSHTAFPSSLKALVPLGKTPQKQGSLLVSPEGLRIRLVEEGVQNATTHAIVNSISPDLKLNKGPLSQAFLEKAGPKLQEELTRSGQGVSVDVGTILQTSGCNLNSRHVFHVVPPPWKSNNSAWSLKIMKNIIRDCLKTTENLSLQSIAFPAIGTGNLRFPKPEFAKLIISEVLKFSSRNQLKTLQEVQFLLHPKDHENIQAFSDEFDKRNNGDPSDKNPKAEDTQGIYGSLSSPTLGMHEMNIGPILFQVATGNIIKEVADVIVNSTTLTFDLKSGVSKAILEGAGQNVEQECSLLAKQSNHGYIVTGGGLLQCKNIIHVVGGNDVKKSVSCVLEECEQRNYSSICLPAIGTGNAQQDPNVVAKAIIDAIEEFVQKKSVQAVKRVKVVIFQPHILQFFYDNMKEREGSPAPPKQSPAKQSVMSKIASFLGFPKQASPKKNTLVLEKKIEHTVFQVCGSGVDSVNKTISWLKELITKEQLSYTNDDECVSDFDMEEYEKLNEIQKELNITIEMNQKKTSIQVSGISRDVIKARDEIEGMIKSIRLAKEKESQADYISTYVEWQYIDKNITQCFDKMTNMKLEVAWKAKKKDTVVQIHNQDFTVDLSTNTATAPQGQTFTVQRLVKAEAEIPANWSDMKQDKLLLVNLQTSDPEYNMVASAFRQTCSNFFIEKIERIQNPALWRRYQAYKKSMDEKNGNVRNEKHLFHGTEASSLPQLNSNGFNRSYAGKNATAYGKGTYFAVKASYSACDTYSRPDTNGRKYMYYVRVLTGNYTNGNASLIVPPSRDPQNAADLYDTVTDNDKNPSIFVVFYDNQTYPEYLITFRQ
# UniProt Q3U0V2: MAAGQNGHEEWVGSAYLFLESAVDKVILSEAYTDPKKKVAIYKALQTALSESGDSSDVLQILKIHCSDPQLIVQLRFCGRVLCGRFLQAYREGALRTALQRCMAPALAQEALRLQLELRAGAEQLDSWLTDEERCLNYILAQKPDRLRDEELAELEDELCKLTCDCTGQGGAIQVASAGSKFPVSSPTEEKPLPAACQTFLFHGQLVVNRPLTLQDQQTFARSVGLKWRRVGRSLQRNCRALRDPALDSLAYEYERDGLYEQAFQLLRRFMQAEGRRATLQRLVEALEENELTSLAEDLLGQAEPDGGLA
# UniProt Q3THS6: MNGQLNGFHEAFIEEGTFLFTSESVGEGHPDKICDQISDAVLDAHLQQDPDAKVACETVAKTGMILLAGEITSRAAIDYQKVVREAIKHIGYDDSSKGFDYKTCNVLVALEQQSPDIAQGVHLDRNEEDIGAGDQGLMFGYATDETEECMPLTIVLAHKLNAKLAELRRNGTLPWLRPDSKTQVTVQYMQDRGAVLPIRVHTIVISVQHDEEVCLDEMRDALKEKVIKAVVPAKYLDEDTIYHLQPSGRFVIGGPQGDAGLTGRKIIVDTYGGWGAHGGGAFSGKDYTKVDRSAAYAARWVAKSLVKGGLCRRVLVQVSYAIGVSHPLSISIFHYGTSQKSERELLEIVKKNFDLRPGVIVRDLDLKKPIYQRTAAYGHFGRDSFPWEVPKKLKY
# Compound: CN[C@@H]1C[C@H]2O[C@@](C)([C@@H]1OC)n1c3ccccc3c3c4c(c5c6ccccc6n2c5c31)C(=O)NC4 [staurosporine]
# Experiment: log2 fold change of tryptic peptide abundance, ligand vs vehicle (limited proteolysis) (log2 ratio); higher = more trypsin-susceptible (destabilized)
# Settings: ligand concentration: 20 uM; sample: mouse liver crude lysate; replicate design: treated separately
row,Target,log2 fold change
1,"UniProt Q31125 (peptide sequence: DGPVKPQSPEEEK, peptide start residue: 305)",0.578
2,"UniProt Q3TB82 (peptide sequence: VLLGEGVLTK, peptide start residue: 35)",0.135
3,"UniProt Q3TVC7 (peptide sequence: VNGEATVLTTHFSK, peptide start residue: 60)",0.351
4,"UniProt Q3THG9 (peptide sequence: SSPAWGGVVTLHRK, peptide start residue: 306)",-0.479
5,"UniProt Q3U319 (peptide sequence: CPKCNAAFGAHDFHR, peptide start residue: 983)",0.708
6,"UniProt Q3TZZ7 (peptide sequence: GKSDPYGIIR, peptide start residue: 334)",-0.338
7,"UniProt Q3TYX3 (peptide sequence: TANQEQAIVHK, peptide start residue: 196)",-0.0392
8,"UniProt Q3TMW1 (peptide sequence: IKYEELSK, peptide start residue: 291)",-0.101
9,"UniProt Q14CH7 (peptide sequence: QTLGPTTEQR, peptide start residue: 639)",0.185
10,"UniProt Q04742 (peptide sequence: NHYVVGAERK, peptide start residue: 181)",0.0164
11,"UniProt Q05CL8 (peptide sequence: VLSKTEWMDLKK, peptide start residue: 374)",-0.419
12,"UniProt Q3TFQ1 (peptide sequence: DGGTGHIPLK, peptide start residue: 14)",0.553
13,"UniProt Q14BJ1 (peptide sequence: SLSGLLHSAAGGAAGGWR, peptide start residue: 24)",-0.226
14,"UniProt Q059U7 (peptide sequence: LVVHGLLPGGSAMK, peptide start residue: 212)",0.559
15,"UniProt Q02614 (peptide sequence: IEMDKLEK, peptide start residue: 206)",-0.304
16,"UniProt Q3TDK6 (peptide sequence: NFRPAGGAVLHSPGAMFEWGSQR, peptide start residue: 216)",0.272
17,"UniProt Q149L6 (peptide sequence: AAYSHQHQHR, peptide start residue: 223)",-0.919
18,"UniProt Q08288 (peptide sequence: TNGTTEEQTEAKK, peptide start residue: 171)",-0.397

# A section of the results above, for reference:
row,Target,log2 fold change
2,"UniProt Q3TB82 (peptide sequence: VLLGEGVLTK, peptide start residue: 35)",0.135
3,"UniProt Q3TVC7 (peptide sequence: VNGEATVLTTHFSK, peptide start residue: 60)",0.351
4,"UniProt Q3THG9 (peptide sequence: SSPAWGGVVTLHRK, peptide start residue: 306)",-0.479
5,"UniProt Q3U319 (peptide sequence: CPKCNAAFGAHDFHR, peptide start residue: 983)",0.708
6,"UniProt Q3TZZ7 (peptide sequence: GKSDPYGIIR, peptide start residue: 334)",-0.338
7,"UniProt Q3TYX3 (peptide sequence: TANQEQAIVHK, peptide start residue: 196)",-0.0392
8,"UniProt Q3TMW1 (peptide sequence: IKYEELSK, peptide start residue: 291)",-0.101
9,"UniProt Q14CH7 (peptide sequence: QTLGPTTEQR, peptide start residue: 639)",0.185
10,"UniProt Q04742 (peptide sequence: NHYVVGAERK, peptide start residue: 181)",0.0164
11,"UniProt Q05CL8 (peptide sequence: VLSKTEWMDLKK, peptide start residue: 374)",-0.419

# The results go on:

row,Target,log2 fold change
1,"UniProt Q3TXS7 (peptide sequence: QCVENADLPEGEKKPIDQR, peptide start residue: 111)",-0.508
2,"UniProt Q2VPU4 (peptide sequence: TMEYITK, peptide start residue: 760)",-0.543
3,"UniProt Q05909 (peptide sequence: LITQCNAK, peptide start residue: 1153)",-0.553
4,"UniProt Q0VBL1 (peptide sequence: KAELNPEK, peptide start residue: 467)",0.201
5,"UniProt Q05920 (peptide sequence: NHQGLLLMDTTFRDAHQSLLATR, peptide start residue: 559)",0.308
6,"UniProt Q3U269 (peptide sequence: VLMYCTGGIR, peptide start residue: 350)",-0.469
7,"UniProt Q3TQF0 (peptide sequence: RILHTDTIWR, peptide start residue: 85)",0.398
8,"UniProt Q2EMV9 (peptide sequence: FRVLFSPEDVR, peptide start residue: 54)",-0.262
9,"UniProt Q3TCH7 (peptide sequence: DKDSPNQYHYVA, peptide start residue: 748)",-0.361
10,"UniProt Q3U2P1 (peptide sequence: IFAMCQVK, peptide start residue: 921)",-0.506
11,"UniProt Q3U0V2 (peptide sequence: VILSEAYTDPK, peptide start residue: 26)",-0.221
12,"UniProt Q08376 (peptide sequence: FEYLLYGHHR, peptide start residue: 265)",-0.444
13,"UniProt Q2VPQ9 (peptide sequence: TAPPQIPDTR, peptide start residue: 7)",0.44
14,"UniProt Q05BC3 (peptide sequence: KPSASLPAPSGAR, peptide start residue: 106)",-0.188
15,"UniProt Q3THS6 (peptide sequence: HIGYDDSSKGFDYK, peptide start residue: 89)",-0.518
16,"UniProt Q3U0M1 (peptide sequence: VESRPTNPSEGSK, peptide start residue: 832)",-0.0806
17,"UniProt Q08481 (peptide sequence: QKPVEMSRPAAPLLNSNSEK, peptide start residue: 621)",0.174
18,"UniProt Q0VBL3 (peptide sequence: DRYNSDNDR, peptide start residue: 682)",-0.474
